Protein sequences can lack the tags named with them. The exact form of at least one protein or probe is not confirmed. Weaker means in comparison with the reference protein, sequence or condition of that experiment. At least one verdict was read from the data and is not stated in words by the source.
Target: T1, SoxR (Hyphomicrobium denitrificans) (UniProt D8JT35)
T1 sequence (looked up): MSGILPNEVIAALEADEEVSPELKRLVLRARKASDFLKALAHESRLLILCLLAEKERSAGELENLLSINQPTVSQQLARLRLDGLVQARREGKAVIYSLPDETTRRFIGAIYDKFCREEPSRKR
Assay: EMSA
Settings: EMSA: 10 mM Tris-HCl pH 8.0, 50 mM KCl, 1 mM DTT, about 7% glycerol, 17 nM DNA, 15 ul, 20 min at room temperature, then 30 min at 30 C with DNA, 6% native gel, 0.25x TBE, recombinant protein, residues 1-124, protein details: N-terminal Strep-tag (WSHPQFEK), probe letters rebuilt from the primers and the genome

Sequence: GGGTCACCAAATTCTGCAGGTCTCAATGCGAATGCGAGGCTGCTCCAGCTAGACGAAAAACAAGGAACGTTGCAATAGATAATTCACATATGATAATTTTCATATGTGTTATAGGATGAACGTTATCGCAGCTTCCGGGAGAGATGGCGTGAT (double strand) [soxA-soxY intergenic fragment, 151 bp]
- binding result (DTT-reduced): binds
- binding result (polysulfide-treated, then DTT-reduced): binds
- binding result (thiosulfate, second shifted band lost at ratio 5, first persists at ratio 50 (0.2 mM)): binds more weakly

Sequence: TTCCCGCCCCGTCTTGGTTTTTGTTTTACTTGCCTACCGAATACGTTTTGCAGCGAAGCGCCCTTGAGGGCGCTCGATCTCTTCCGGTGAGGGTTCGTGTCGATTGTTCAGCGCTCGCCTGGAAGTCGGCGCCAGCTATTAGATATGAATATTCCTATATTCAAATATAAATCGCAACGGAAGCGCATCGTCAAGGCCGTGCTCCGTGGTGCGCTACGCATCACCGCGTACGTTTGAGAACACAGCTTTGCCCGAAAATATATAAAGATATGAATATGTTGATGCTTAGATTTGAGTTGCAAGCTCTCTGCTGCATCGGTAGGTGATTAGCGAATATTCACGCTTTTTTGGATGCAACTCCT (double strand) [soxT1A-shdrR intergenic region, 362 bp]
- binding result (300 and 700 nM SoxR): binds
